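Phenotypic screen: M. tuberculosis growth, cholesterol and DPPC medium, 4 days; the read-out is not stated. Compounds at 50 µM. Higher reads as more growth inhibition (inferred: compounds with an IC50 in retests scored well above the rest). Of about 69,000 compounds tested this way, about 370 (0.54%) reached 50% or more in at least one test.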

Each number is a percent effect as filed.
How 0% and 100% were set is not recorded. Most values in the screen are low, and negative values occur.
Compounds were drawn at random from those tested, without regard to their results.
Two or more numbers in one place are separate tests of the same structure; such repeats can differ widely.

| # | SMILES | effect |
|---|---|---|
| 1 | `CC(=O)N1CCC(c2cncc(N3CCOCC3)n2)CC1` | 8.695% |
| 2 | `Cc1nn(C)c(C)c1OCC(=O)N1CCCCC1` | 14.81% |
| 3 | `CC(=O)N1CCC2(CCCN(C(=O)c3ccc(Cl)c(C(F)(F)F)c3)C2)C1` (centres unmarked) | 4.839% |
| 4 | `CCc1ncc2c(n1)CN(CC(=O)NC1CCCCNC1=O)CC2` (centres unmarked) | -2.065% |
| 5 | `O=c1c2cccnc2cnn1CC(O)c1ccc(Br)cc1` (centres unmarked) | -22.5% |
| 6 | `Cc1n[nH]c(C)c1CCC(=O)NCC1COc2ccccc2C1` (centres unmarked) | -13.24% |
| 7 | `O=C1CC(N(C(=O)c2ccc(Oc3ccccc3)cc2)C2CC2)C(=O)N1` (centres unmarked) | -14.54% |
| 8 | `Cn1cc(-c2csc(N3CCSCC3)n2)cn1` | -13.06% |
| 9 | `[H][C@@]12C[C@H](C(=O)N3CCOCC3)[C@@]([H])(CN(S(=O)(=O)CCC)C1)O2` | -16.96% |
| 10 | `CNC(=O)NC(=O)CCN1CCN(c2ccc(C(=O)OC)cc2)CC1C` (centres unmarked) | 2.69% |
| 11 | `CN(c1ccc(C(C)(C)C)cc1)S(=O)(=O)c1cc(C(=O)O)cs1` | 0.9993% |
| 12 | `COCCCNc1cc(C)nn2cnnc12` | 9.052% |
| 13 | `CC(=O)NCCc1nc(C(C)C)nn1-c1ccncc1C` | 3.429% |
| 14 | `Cc1cc(C)n(CCNCc2cc(-c3ccc(F)cc3)c[nH]c2=O)n1` | 5.366% and 16.76% |
| 15 | `Fc1cc(CCNc2ccc3nccn3n2)c2c(c1)COCO2` | 12.71% |
| 16 | `COc1ccc(C(=O)N2C[C@@H](C(=O)O)[C@H](c3cccc(F)c3)C2)c(O)c1` | -20.18% |
| 17 | `CNc1nc(C(=O)N2CCCN(c3ccnc(C)c3)CC2)cs1` | 2.97% |
| 18 | `O=C(NCc1cnn2cccnc12)C1CC2(CCNCC2)CN1` (centres unmarked) | 23.28% |
| 19 | `CC(C)CCC(=O)N1CCC2(CC1)OCCO2` | 11.17% |
| 20 | `O=C(C1CCCO1)N1CCc2nnc(Cn3cccc3)n2CC1` (centres unmarked) | -2.963% |
| 21 | `COc1ccc(C)cc1CN1CCOC(Cn2nc(C)nc2C)C1` (centres unmarked) | -19.69% |
| 22 | `O=C(CN(Cc1cccs1)C1CCS(=O)(=O)C1)NCC1CCCCC1` (centres unmarked) | 5.026% |
| 23 | `O=C(C1=CCCC1)N1CCC[C@]2(C[C@@H](OCc3ccccn3)CO2)C1.O=C(O)C(F)(F)F` | 17.27% |
| 24 | `O=C(c1cccc(N2CCCC2=O)c1)N1CCCC(n2cccn2)C1` (centres unmarked) | 2.291% |
| 25 | `CCCc1nc(CN2CCCC2Cn2cccn2)cs1` (centres unmarked) | 5.457% |
| 26 | `Cc1occc1CN(C)Cc1nc2c(cnn2C)c(=O)[nH]1` | -2.271% |
| 27 | `CN1CCN(C(=O)N2CCC3(CCCN(C4CCOCC4)C3=O)C2)CC1` (centres unmarked) | 16.21% |
| 28 | `CC(C)(C)c1nnc(CN2CCCC(c3cc(C(N)=O)[nH]n3)C2)o1` (centres unmarked) | -23.46% |
| 29 | `O=C(O)c1ccccc1-c1cnc(Cn2c(=O)cc[nH]c2=O)s1` | 22.34% |
| 30 | `Cc1nc(C)n(CC2CCCCN2CC(=O)NCc2ccccn2)n1` (centres unmarked) | -11.45% |
| 31 | `COCCn1c2c(ccc1=O)CCN(C(=O)NC1CC1)CC2` | 9.811% |
| 32 | `NC(=O)CCSc1n[nH]c(-c2ccc3c(c2)CCC3)n1` | 5.993% |
| 33 | `OC1CCN(Cc2c(-c3ccco3)[nH]c3ncccc23)CC1` | -16.12% |
| 34 | `COCC(=O)NC[C@H]1CC[C@H](c2nnc(-c3cccnc3)o2)CC1` | -18.77% |
| 35 | `[H][C@]12CC[C@@]3(N=C(C)NC3=O)[C@@]1([H])CN(C(=O)NCCc1ccccc1)C2` | 11% |
| 36 | `COc1cccc(CCNC(=O)c2ccc(=O)n(C)c2)c1` | -5.107% |
| 37 | `O=C(O)C(F)(F)F.[H][C@@]12COC[C@]1(CNS(C)(=O)=O)CN(CCc1ccccc1)C2` | -13.09% |
| 38 | `CCc1ccc(C(=O)NC[C@H]2CCCN2C(=O)c2ccc(CC)o2)o1` | -13.94% |
| 39 | `CN(CCC(=O)N1CCc2sccc2C1)Cc1cnn(C)c1` | -0.7668% |
| 40 | `CCc1nc(CN(C)Cc2nc(-c3ccccc3Cl)oc2C)no1` | -6.216% |
| 41 | `O=C(O)C(F)(F)F.[H][C@@]12CCN(c3cccnc3)C[C@]1([H])CN(C(=O)c1ccc(F)cc1)C2` | -28.28% |
| 42 | `COCCN(C)C[C@@H]1CN(c2nc(C)cc(C)n2)C[C@@H]1CO` | 4.007% |
| 43 | `CC(O)CN1CCN(C(=O)c2ccc(N(C)C)nc2)CC1` (centres unmarked) | -9.624% |
| 44 | `CCC(C)(O)CNc1ccc(S(=O)(=O)C(F)F)cc1` (centres unmarked) | 17.89% |
| 45 | `O=C(O)C(F)(F)F.[H][C@@]12CCN(C3CCC3)[C@]1([H])CC[C@H](C(=O)NCc1cccs1)O2` | -0.7048% |
| 46 | `N#Cc1ccccc1N1CCN(C(=O)NCCN2CCOCC2)CC1` | 1.02% |
| 47 | `Cc1cnn(CC2CN(Cc3nc4ccccc4s3)CCO2)c1` (centres unmarked) | 50.53% |
| 48 | `CC(C)c1nc2c(n1C)CCN(CC(=O)NCc1ccccn1)C2` | -14.8% |
| 49 | `CN(CC(=O)NCCCOc1ccc(F)cc1)c1ccc(C#N)cn1` | -0.03294% |
| 50 | `CCc1cnc(CN(C)C2CCN(CCS(C)(=O)=O)C2)o1` (centres unmarked) | -9.37% |
| 51 | `O=C(O)C(F)(F)F.[H][C@]12CN(Cc3cccs3)C[C@@]1([H])OCCN(S(=O)(=O)C1CC1)C2` | 7.07% |
| 52 | `CCN(Cc1ccc2c(c1)OCO2)C(=O)NC(C)Cn1cccn1` (centres unmarked) | -20.53% |
| 53 | `CC(c1nc(C2CC2)no1)N1CCN(Cc2cccnc2)CC1` (centres unmarked) | -21.03% |
| 54 | `Cc1ncc(CNC(=O)c2oc3ccccc3c2CN(C)C)s1` | -36.61% and 0.4285% |
| 55 | `Cc1ncc(CNC(=O)N(C)C2CCN(c3ccccc3)C2=O)s1` (centres unmarked) | 0.7468% |
| 56 | `CC(=O)N1CCCN(C(=O)NCCCNS(C)(=O)=O)CC1` | -34.04% |
| 57 | `COCCN1C(=O)CC(N2CCN(c3ccc(OC)cc3)CC2)C1=O` (centres unmarked) | -13.17% |
| 58 | `O=C(CC(F)(F)F)Nc1cc(F)ccc1OCC1CCCO1` (centres unmarked) | -13.66% |
| 59 | `COc1ccc(CN2CC[C@@]3(C2)[C@H](O)CN(C)S3(=O)=O)cc1F` | 1.349% |
| 60 | `COCc1noc(-c2ccc(N(C)Cc3nccs3)nc2)n1` | 6.647% and 19.35% |

For reference, 5 entries once more:

| SMILES | effect |
|---|---|
| `Cn1cc(-c2csc(N3CCSCC3)n2)cn1` | -13.06% |
| `CC(=O)NCCc1nc(C(C)C)nn1-c1ccncc1C` | 3.429% |
| `O=C1CC(N(C(=O)c2ccc(Oc3ccccc3)cc2)C2CC2)C(=O)N1` (centres unmarked) | -14.54% |
| `Cc1ncc(CNC(=O)N(C)C2CCN(c3ccccc3)C2=O)s1` (centres unmarked) | 0.7468% |
| `Cc1nn(C)c(C)c1OCC(=O)N1CCCCC1` | 14.81% |

Source: ChEMBL document CHEMBL3988442, “University of Dundee, Small-Polar-MMV Screening Library” (2021).